The assay addresses endogenous rat CaV2.1 (rat (endogenous in rat forebrain)) (UniProt P54282). Nature of the assay: co-IP; rat forebrain lysates immunoprecipitated with the anti-rat CaV2.1 antibody or rabbit IgG; immunoblot of endogenous proteins. Background: A western blot detects proteins with antibodies after separation by electrophoresis.

Chains of the proteins cited; added tags and fusions are not shown.
UniProt P54282: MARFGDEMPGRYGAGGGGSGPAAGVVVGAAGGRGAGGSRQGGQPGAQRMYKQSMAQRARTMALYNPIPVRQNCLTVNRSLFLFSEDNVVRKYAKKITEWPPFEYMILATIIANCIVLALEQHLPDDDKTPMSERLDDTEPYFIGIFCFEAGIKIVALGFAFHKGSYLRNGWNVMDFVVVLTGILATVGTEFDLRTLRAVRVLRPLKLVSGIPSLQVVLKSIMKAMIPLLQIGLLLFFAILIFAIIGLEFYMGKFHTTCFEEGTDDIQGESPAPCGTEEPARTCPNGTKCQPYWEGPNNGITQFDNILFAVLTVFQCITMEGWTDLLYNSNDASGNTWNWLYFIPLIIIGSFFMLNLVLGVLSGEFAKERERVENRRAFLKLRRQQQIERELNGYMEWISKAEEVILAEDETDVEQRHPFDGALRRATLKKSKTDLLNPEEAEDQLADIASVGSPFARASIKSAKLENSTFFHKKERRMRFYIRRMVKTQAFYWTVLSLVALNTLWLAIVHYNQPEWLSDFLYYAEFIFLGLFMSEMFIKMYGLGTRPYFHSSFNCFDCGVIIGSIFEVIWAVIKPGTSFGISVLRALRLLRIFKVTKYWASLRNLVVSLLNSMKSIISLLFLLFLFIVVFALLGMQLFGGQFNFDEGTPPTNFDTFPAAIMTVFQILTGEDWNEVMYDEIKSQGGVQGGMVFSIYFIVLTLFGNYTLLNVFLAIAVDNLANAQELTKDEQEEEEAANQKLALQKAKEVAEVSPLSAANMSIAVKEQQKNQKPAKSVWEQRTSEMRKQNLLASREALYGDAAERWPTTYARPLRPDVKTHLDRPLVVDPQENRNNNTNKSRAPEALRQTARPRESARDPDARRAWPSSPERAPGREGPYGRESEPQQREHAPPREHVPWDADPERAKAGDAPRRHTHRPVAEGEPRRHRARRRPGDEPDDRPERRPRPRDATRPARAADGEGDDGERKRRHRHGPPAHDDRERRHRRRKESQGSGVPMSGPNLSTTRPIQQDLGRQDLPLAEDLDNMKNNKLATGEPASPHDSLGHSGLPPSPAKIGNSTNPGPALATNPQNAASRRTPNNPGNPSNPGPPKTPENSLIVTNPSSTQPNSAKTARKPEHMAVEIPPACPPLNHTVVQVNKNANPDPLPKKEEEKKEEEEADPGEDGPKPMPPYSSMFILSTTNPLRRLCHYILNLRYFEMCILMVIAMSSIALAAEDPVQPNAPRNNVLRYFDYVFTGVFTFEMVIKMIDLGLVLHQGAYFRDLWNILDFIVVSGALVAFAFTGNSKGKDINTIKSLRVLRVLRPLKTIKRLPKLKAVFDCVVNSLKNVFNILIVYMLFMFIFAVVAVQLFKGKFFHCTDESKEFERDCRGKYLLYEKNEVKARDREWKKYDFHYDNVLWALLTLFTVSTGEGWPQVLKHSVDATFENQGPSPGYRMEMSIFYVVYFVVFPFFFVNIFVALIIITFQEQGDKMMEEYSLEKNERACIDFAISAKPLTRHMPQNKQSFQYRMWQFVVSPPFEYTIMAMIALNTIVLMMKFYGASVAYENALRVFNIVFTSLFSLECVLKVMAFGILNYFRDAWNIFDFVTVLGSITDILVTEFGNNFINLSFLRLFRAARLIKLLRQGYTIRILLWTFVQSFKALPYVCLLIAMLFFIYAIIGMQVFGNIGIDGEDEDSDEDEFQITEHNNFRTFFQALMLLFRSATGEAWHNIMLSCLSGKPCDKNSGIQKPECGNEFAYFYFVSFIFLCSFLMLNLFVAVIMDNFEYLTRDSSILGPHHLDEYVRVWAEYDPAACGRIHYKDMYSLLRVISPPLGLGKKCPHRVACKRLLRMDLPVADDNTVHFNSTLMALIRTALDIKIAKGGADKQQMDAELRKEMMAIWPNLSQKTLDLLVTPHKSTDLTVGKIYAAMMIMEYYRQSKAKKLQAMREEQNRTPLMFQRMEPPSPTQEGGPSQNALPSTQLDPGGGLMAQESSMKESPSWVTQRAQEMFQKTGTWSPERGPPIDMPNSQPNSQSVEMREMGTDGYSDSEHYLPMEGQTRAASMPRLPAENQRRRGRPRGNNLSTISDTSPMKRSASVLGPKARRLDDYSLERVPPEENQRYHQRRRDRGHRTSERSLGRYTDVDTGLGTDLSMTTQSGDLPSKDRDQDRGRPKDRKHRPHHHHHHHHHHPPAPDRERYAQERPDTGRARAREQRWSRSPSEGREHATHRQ

Results are given in words; binding and its absence hold for the method and conditions named. Binding seen in cells or lysates may run through a third protein. Some results given as binding are weak or reduced against the parent protein; the word gives no strength.

B1: endogenous RNF138 (rat forebrain) (enzyme, UniProt Q99PD2 1-209)
chain: MSEELSADTSYTEDDFYCPVCQEVLKTPVRTAACQHVFCRKCFLTAMRESGIHCPLCRGSVTRRERACPERAIDLENIMRRVSGSCRCCSKKIKFYRMRHHYKSCKKYQDEYGVSSVIPNVKISQDSVRSSNRSETSASDNTETYQEDTSSSGHPTFKCPLCQESNFTRQRLLDHCNSNHLFQIVPVNLQLDEETQYQTAVEESFQVNM
As for B1, the binding result is “binds”.

For the origin of these results see paper PMC11603662.
